# The supplement of paper PMC9744312
# Where a name gives a salt, the structure may show the parent alone. The list shows a part of the results. The data scatter; read single values as rough.
# Tested on: Peyronie's disease tunica albuginea primary fibroblasts
# Test: inhibition of TGF-beta1-induced alpha-SMA expression (myofibroblast transformation), relative to TGF-beta1-only and untreated controls; higher = stronger inhibition of myofibroblast transformation
# Details: 10 µM; TGF-beta1 10 ng/mL; 72 h
row,SMILES,inhibition of TGF-beta1-induced alpha-SMA expression [%]
1,COc1cc(C(C)=O)ccc1OCCCN1CCC(c2noc3cc(F)ccc23)CC1 [Iloperidone],-2.23
2,Cc1cccc(C)c1N(CC(=O)Nc1ccc(-c2ncon2)cc1)C(=O)C1CCS(=O)(=O)CC1 [Amenamevir],36.6
3,O=NN(CCCl)C(=O)NCCCl [Carmustine],-4.34
4,CCOC(=O)c1ncn2c1CN(C)C(=O)c1cc(F)ccc1-2 [Flumazenil],3.13
5,Cc1cc(C)c2c(c1)[C@@H](N(Cc1cc(C(F)(F)F)cc(C(F)(F)F)c1)c1nnn(C)n1)CCCN2C[C@H]1CC[C@H](C(=O)O)CC1,-3.75
6,Cl.NCCCC[C@H](N)C(=O)O [L-Lysine hydrochloride],-10.8
7,CC(C(=O)O)c1cccc(C(=O)c2ccccc2)c1 (stereo not given) [Ketoprofen],22.2
8,COC(=O)N[C@H](C(=O)N1CCC[C@H]1c1ncc(-c2ccc(-c3ccc(-c4cnc([C@@H]5CCCN5C(=O)[C@@H](NC(=O)OC)C(C)C)[nH]4)cc3)cc2)[nH]1)C(C)C,3.76
9,CC(C)(C)C(=O)C(Oc1ccc(Cl)cc1)n1ccnc1 (stereo not given) [Climbazole],> 100
10,Cc1ccccc1OCC(O)CO (stereo not given) [Mephenesin],11.6
11,O=C1CN(/N=C/c2ccc([N+](=O)[O-])o2)C(=O)N1 [Nitrofurantoin],-6.8
12,C[C@H](N)[C@H](O)c1cccc(O)c1 [Metaraminol Bitartrate],35.7
13,CC1(C)S[C@@H]2[C@H](NC(=O)C(C(=O)O)c3ccccc3)C(=O)N2[C@H]1C(=O)O (stereo not given in full) [Carbenicillin disodium],24.8
14,O=C1CN(/N=C/c2ccc(-c3ccc([N+](=O)[O-])cc3)o2)C(=O)N1 [Dantrolene sodium hemiheptahydrate],10.4
15,O=C1CN(/N=C/c2ccc(-c3ccc([N+](=O)[O-])cc3)o2)C(=O)N1 [Dantrolene sodium],15.3
16,CC(C)OC(=O)CCC/C=C\C[C@@H]1[C@@H](/C=C/[C@@H](O)COc2cccc(C(F)(F)F)c2)[C@H](O)C[C@@H]1O [Travoprost],-2.9
17,CCOC(=O)n1ccn(C)c1=S [Carbimazole],21.6
18,CC1(O)CCC(C(C)(C)O)CC1 (stereo not given) [Terpin hydrate],32.8
19,CC1(C)S[C@@H]2[C@H](NC(=O)[C@H](C(=O)O)c3ccsc3)C(=O)N2[C@H]1C(=O)O [Ticarcillin sodium],55.7
20,CN[C@H]1C(=O)N[C@@H]2Cc3ccc(cc3)Oc3cc4cc(c3O[C@@H]3O[C@H](C(=O)O)[C@@H](O)[C@H](O)[C@H]3NC(=O)CCCCCCCCC(C)C)Oc3ccc(cc3Cl)[C@@H](O)[C@@H]3NC(=O)[C@H](NC(=O)[C@@H]4NC(=O)[C@@H](NC2=O)c2cc(cc(O)c2Cl)Oc2cc1ccc2O)c1ccc(O)c(c1)-c1c(O[C@H]2O[C@H](CO)[C@@H](O)[C@H](O)[C@@H]2O)cc(O)cc1[C@@H](C(=O)NCCCN(C)C)NC3=O [Dalbavancin],42.2

# Already shown: entries from further up.
row,SMILES,inhibition of TGF-beta1-induced alpha-SMA expression [%]
18,CC1(O)CCC(C(C)(C)O)CC1 (stereo not given) [Terpin hydrate],32.8
19,CC1(C)S[C@@H]2[C@H](NC(=O)[C@H](C(=O)O)c3ccsc3)C(=O)N2[C@H]1C(=O)O [Ticarcillin sodium],55.7

# (further entries)

row,SMILES,inhibition of TGF-beta1-induced alpha-SMA expression [%]
1,Cc1cc(NS(=O)(=O)c2ccc(N)cc2)no1 [Sulfamethoxazole sodium],33.5
2,Cc1cc(NS(=O)(=O)c2ccc(N)cc2)no1 [Sulfamethoxazole],30.7
3,CN[C@@H]1[C@@H](O)[C@@H](O[C@@H]2[C@@H](O)[C@H](O[C@H]3OC(CN)=CC[C@H]3N)[C@@H](N)C[C@H]2N)OC[C@]1(C)O [Sisomicin sulfate],98.3
4,C[C@H](Oc1ccc(S(C)(=O)=O)cc1C(=O)N1CCN(c2ncc(C(F)(F)F)cc2F)CC1)C(F)(F)F [Bitopertin],-4.27
5,CC[C@H]1OC(=O)C[C@@H](O)[C@H](C)[C@@H](O[C@@H]2O[C@H](C)[C@@H](O[C@H]3C[C@@](C)(O)[C@@H](O)[C@H](C)O3)[C@H](N(C)C)[C@H]2O)[C@@H](CC=O)C[C@@H](C)C(=O)/C=C/C(C)=C/[C@@H]1CO[C@@H]1O[C@H](C)[C@@H](O)[C@@H](OC)[C@H]1OC [Tylosin tartrate],1.94
6,NC[C@H]1O[C@H](O[C@H]2[C@H](O)[C@@H](O[C@H]3O[C@H](CO)[C@@H](O)[C@H](N)[C@H]3O)[C@H](N)C[C@@H]2N)[C@H](O)[C@@H](O)[C@@H]1O [Kanamycin sulfate],-2.27
7,"O=C(CCCCCCC(=O)Nc1ccccc1)NO [Vorinostat (SAHA, MK0683)]",93.1
8,COC(=O)C1=C(C)NC(C)=C(C(=O)OC2CCCN(Cc3ccccc3)C2)C1c1cccc([N+](=O)[O-])c1 (stereo not given) [Benidipine HCl],64.1
9,CCNC(=O)CCC/C=C\C[C@@H]1[C@@H](/C=C/[C@@H](O)CCc2ccccc2)[C@H](O)C[C@@H]1O [Bimatoprost],25
10,COC(=O)N[C@H](C(=O)N1CCC[C@H]1c1nc(-c2ccc3c(c2)O[C@@H](c2ccccc2)n2c-3cc3cc(-c4c[nH]c([C@@H]5CCCN5C(=O)[C@@H](NC(=O)OC)C(C)C)n4)ccc32)c[nH]1)C(C)C [Elbasvir],16.7
11,O=C(O)c1ccc2c(c1)nc(Nc1cccc(Cl)c1)c1ccncc12 [Silmitasertib (CX-4945)],10.7
12,CC1(C)O[C@@H]2C[C@H]3[C@@H]4CCC5=CC(=O)C=C[C@]5(C)[C@H]4[C@@H](O)C[C@]3(C)[C@]2(C(=O)CO)O1 [Desonide],87.3
13,CCN(CC)C(=S)SSC(=S)N(CC)CC [Disulfiram],74.8
14,COc1cc2/c(=N/c3ccc(Br)cc3F)nc[nH]c2cc1OCC1CCN(C)CC1 [Vandetanib (ZD6474)],76.5
15,Nc1c2c(nc3ccccc13)CCCC2 [Tacrine HCl],24.3
16,CCCCC(CC)COC(=O)C(C#N)=C(c1ccccc1)c1ccccc1 (stereo not given) [Octocrylene],20.3
17,CN1CC(O)C2=C/C(=N/NC(N)=O)C(=O)C=C21 (stereo not given) [Carbazochrome],1.14
18,O=c1sn(-c2cccc3ccccc23)c(=O)n1Cc1ccccc1 [Tideglusib],-10.1
19,OC[C@@H](O)[C@@H](O)[C@H](O)[C@@H](O)CO [Sorbitol],17.1
20,O=C(O)COc1nn(Cc2ccccc2)c2ccccc12 [Bendazac],3.68
